Positions count from the first letter of the chain named. Some of the results follow. At the low end of the ranking the order means little.

Holding throughout (conditions): yeast three-hybrid, YBZ-1, SC-Leu-His + 0.5 mM 3-AT, 4 days
Test [1] has as its target T1, PUM1 PUF domain R6-LWK N1043L + Y1044W + Q1047K (UniProt Q14671).
T1 sequence: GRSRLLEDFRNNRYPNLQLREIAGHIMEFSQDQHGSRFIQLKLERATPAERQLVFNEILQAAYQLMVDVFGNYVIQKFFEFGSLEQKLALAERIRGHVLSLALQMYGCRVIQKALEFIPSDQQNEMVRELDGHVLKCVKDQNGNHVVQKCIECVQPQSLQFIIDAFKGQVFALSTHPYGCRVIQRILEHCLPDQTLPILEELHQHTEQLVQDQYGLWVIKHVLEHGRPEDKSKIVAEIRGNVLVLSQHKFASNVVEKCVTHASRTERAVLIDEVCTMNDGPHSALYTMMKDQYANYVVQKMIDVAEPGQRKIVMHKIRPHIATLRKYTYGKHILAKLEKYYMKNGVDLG

For test [2], the target named is T2, PUM1 PUF domain R6-MHR N1043M + Y1044H + Q1047R (UniProt Q14671).
T2 sequence: T1 sequence with L216M, W217H, K220R

In test [3] the target is T3, PUM1 PUF domain R6-MWG N1043M + Y1044W + Q1047G (UniProt Q14671).
T3 sequence: T1 sequence with L216M, K220G

Test [4] concerns the target T4, PUM1 PUF domain R6-MYR N1043M + Q1047R (UniProt Q14671).
T4 sequence: T1 sequence with L216M, W217Y, K220R

Test [5] concerns the target T5, PUM1 PUF domain R6-NFL Y1044F + Q1047L (UniProt Q14671).
T5 sequence: T1 sequence with L216N, W217F, K220L

Test [6] deals with T6, PUM1 PUF domain R6-NRI Y1044R + Q1047I (UniProt Q14671).
T6 sequence: T1 sequence with L216N, W217R, K220I

The target of test [7] is T7, PUM1 PUF domain R6-NRR Y1044R + Q1047R (UniProt Q14671).
T7 sequence: T1 sequence with L216N, W217R, K220R

In test [8] the target is T8, PUM1 PUF domain R6-QHR N1043Q + Y1044H + Q1047R (UniProt Q14671).
T8 sequence: T1 sequence with L216Q, W217H, K220R

Test [9] deals with T9, PUM1 PUF domain R6-QRR N1043Q + Y1044R + Q1047R (UniProt Q14671).
T9 sequence: T1 sequence with L216Q, W217R, K220R

Test [10] concerns the target T10, PUM1 PUF domain R6-RFA N1043R + Y1044F + Q1047A (UniProt Q14671).
T10 sequence: T1 sequence with L216R, W217F, K220A

For test [11], the target named is T11, PUM1 PUF domain R6-RHR N1043R + Y1044H + Q1047R (UniProt Q14671).
T11 sequence: T1 sequence with L216R, W217H, K220R

The target of test [12] is T12, PUM1 PUF domain R6-RRK N1043R + Y1044R + Q1047K (UniProt Q14671).
T12 sequence: T1 sequence with L216R, W217R

Test [13] concerns the target T13, PUM1 PUF domain R6-RWC N1043R + Y1044W + Q1047C (UniProt Q14671).
T13 sequence: T1 sequence with L216R, K220C

In test [14] the target is T14, PUM1 PUF domain R6-RYA N1043R + Q1047A (UniProt Q14671).
T14 sequence: T1 sequence with L216R, W217Y, K220A

For test [15], the target named is T15, PUM1 PUF domain R6-SFR N1043S + Y1044F + Q1047R (UniProt Q14671).
T15 sequence: T1 sequence with L216S, W217F, K220R

The target in test [16] is T16, PUM1 PUF domain R6-SFS N1043S + Y1044F + Q1047S (UniProt Q14671).
T16 sequence: T1 sequence with L216S, W217F, K220S

In test [17] the target is T17, PUM1 PUF domain R6-SHR N1043S + Y1044H + Q1047R (UniProt Q14671).
T17 sequence: T1 sequence with L216S, W217H, K220R

Test [18] has as its target T18, PUM1 PUF domain R6-SRR N1043S + Y1044R + Q1047R (UniProt Q14671).
T18 sequence: T1 sequence with L216S, W217R, K220R

The target in test [19] is T19, PUM1 PUF domain R6-SWR N1043S + Y1044W + Q1047R (UniProt Q14671).
T19 sequence: T1 sequence with L216S, K220R

In test [20] the target is T20, PUM1 PUF domain R6-SYR N1043S + Q1047R (UniProt Q14671).
T20 sequence: T1 sequence with L216S, W217Y, K220R

In the case of “GGCUAGAACUAGUGGAUCCCCCGGCGCCCGGCGGCUCGAGCCCGGGUAAGUGGAAAUAGUCUGCAUGCCGCCGGGCGCCAUGCCUGCAGGUCGACUCUAGAAAACAUG”, the binding signal (log2 enrichment (interaction score)) is less than -7.21 in test [1]; less than -7.33 in test [2]; less than -8.28 in [3]; less than -6.77 in test [4]; less than -8.03 in [5]; less than -6.86 in test [6]. The binding signal (log2 enrichment (interaction score)) in [7] was less than -8.01; in test [8] it was less than -8.99; in test [9], less than -9.43; in [10] it was less than -7.39; in test [11], less than -7.88; in test [12] it was less than -9.78. Moreover, the binding signal (log2 enrichment (interaction score)) is less than -7.04 in test [13]; less than -8.18 in test [14]; less than -7.48 in [15]; less than -7.36 in test [16]; less than -7.94 in [17]; less than -10.8 in test [18]. The binding signal (log2 enrichment (interaction score)) in test [19] was less than -9.61; in test [20] it was less than -7.98.
